These results are taken from publication PMC6445466.

Chains of the proteins cited; added tags and fusions are not shown. Residues count along the entry.
recombinant His-C1r-CCP1-CCP2 (residues 309-449) (P00736, residues 309-449): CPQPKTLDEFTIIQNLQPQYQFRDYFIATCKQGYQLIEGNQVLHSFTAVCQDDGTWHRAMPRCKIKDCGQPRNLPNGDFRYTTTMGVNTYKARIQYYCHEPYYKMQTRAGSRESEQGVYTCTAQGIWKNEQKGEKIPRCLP
recombinant His-C1r-CCP1 (residues 309-373) (P00736, residues 309-373): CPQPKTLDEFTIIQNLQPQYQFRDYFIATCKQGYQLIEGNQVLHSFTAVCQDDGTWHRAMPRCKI

Assay [1] concerns the target T1, BBK32(206-348) (residues 206-348, B. burgdorferi strain B31) (Borrelia burgdorferi strain B31) (UniProt O50835).
T1 sequence: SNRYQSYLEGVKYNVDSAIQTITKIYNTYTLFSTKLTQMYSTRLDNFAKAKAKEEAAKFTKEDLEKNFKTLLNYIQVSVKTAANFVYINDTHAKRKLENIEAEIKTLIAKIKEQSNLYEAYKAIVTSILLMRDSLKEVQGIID
Nature of the assay: SPR; Biacore T200, 25 °C, BBK32(206-348) immobilised; C1r fragments as analytes, single-cycle as for C1r, 0.8 to 500 nM; 1:1 Langmuir fit; both purified. On the technique in general: Surface plasmon resonance follows binding to a sensor surface in real time, without labels.

Assay [2] concerns the target T1, BBK32(206-348) (residues 206-348, B. burgdorferi strain B31) (Borrelia burgdorferi strain B31). The assay can be described thus: SPR; Biacore T200, 25°C; BBK32(206-348) immobilised by amine coupling; C1r fragments as analytes, single-cycle kinetics as for C1r, 0.8 to 500 nM; 1:1 kinetic fit; triplicate; both purified.

Results are given in words; binding and its absence hold for the method and conditions named.

In the case of “His-C1r-CCP1 (residues 309-373) (from UniProt P00736 309-373) (domain or fragment)”, in assay [1], the binding result was “no binding (tested: 0.8 to 500 nM)”. Regarding “His-C1r-CCP1-CCP2 (residues 309-449) (from UniProt P00736 309-449) (domain or fragment)”, the binding result in assay [1] is “no binding (tested: 0.8 to 500 nM)”. Take “recombinant His-C1r-CCP1 (residues 309-373) (from UniProt P00736 309-373) (domain or fragment)”: the binding result in assay [2] is listed as “no binding (tested: 0.8 to 500 nM)”.

For “recombinant His-C1r-CCP1-CCP2 (residues 309-449) (from UniProt P00736 309-449) (domain or fragment)”, the binding entry in assay [2] is on record as “no binding (tested: 0.8 to 500 nM)”.
